The values that follow come from patent publication US20190374627A1, “TARGET PEPTIDES FOR CANCER THERAPY AND DIAGNOSTICS” (priority 2016, published 2019).

What all share (set-up): key: The presence of phosphopeptides in previously analyzed samples including leukemia, colorectal cancer, melanoma, ovarian cancer, breast cancer, and esophageal cancer is indicated by ✓
One data set concerns colorectal cancer. The data set can be described thus: Presence of the phosphopeptide in previously analyzed colorectal cancer samples.
In the next data set the test system is esophageal cancer. The data set can be described thus: Presence of the phosphopeptide in previously analyzed esophageal cancer samples.
The subject of a further data set is ovarian cancer. In words: Presence of the phosphopeptide in previously analyzed ovarian cancer samples.
The test system of another data set is melanoma. In words: Presence of the phosphopeptide in previously analyzed melanoma samples.
Another data set relates to leukemia. In words: Presence of the phosphopeptide in previously analyzed leukemia samples.

Regarding “16 (KAFSPVRSV; (4)...(4) The amino acid at this position is optionally phosphorylated; listed as Homo sapiens) [compound 16]”, the Colorectal result in the data set on colorectal cancer is listed as “✓”. Further, the Esophageal entry in the data set on esophageal cancer was “✓”. Moreover, in the data set with ovarian cancer, the Ovarian result is reported as “✓”.
Regarding “21 (KLFPDTPLAL; (6)...(6) The amino acid at this position is optionally phosphorylated; listed as Homo sapiens) [compound 21]”, the Colorectal result in the data set with colorectal cancer is “✓”. The Ovarian entry in the data set on ovarian cancer was “✓”. In the data set on melanoma, the Melanoma entry was “✓”.
With “22 (KLIDIVSSQKV; (7)...(7) The amino acid at this position is optionally phosphorylated; listed as Homo sapiens) [compound 22]”, the Colorectal entry in the data set with colorectal cancer is recorded as “✓”. In addition, the Ovarian result in the data set on ovarian cancer is on record as “✓”. In addition, the Melanoma result in the data set on melanoma is “✓”.
Take “43 (RLSSPLHFV; (4)...(4) The amino acid at this position is optionally phosphorylated; listed as Homo sapiens) [compound 43]”: the Colorectal entry with colorectal cancer is “✓”. For the same substance, the Ovarian result in the data set with ovarian cancer was “✓”. Besides, the Melanoma entry in the data set with melanoma is “✓”.
As for “48 (RQDSTPGKVFL; (4)...(4) The amino acid at this position is optionally phosphorylated; listed as Homo sapiens) [compound 48]”, the Colorectal entry in the data set with colorectal cancer is listed as “✓”. Moreover, the Ovarian result in the data set with ovarian cancer is listed as “✓”. Also, the Melanoma result in the data set with melanoma is listed as “✓”.
Regarding “51 (RQLSSGVSEI; (4)...(4) The amino acid at this position is optionally phosphorylated; listed as Homo sapiens) [compound 51]”, the Colorectal entry in the data set on colorectal cancer is listed as “✓”. Further, in the data set on ovarian cancer, the Ovarian entry is “✓”. The Melanoma entry with melanoma is given as “✓”.
In the case of “57 (RVASPTSGV; (4)...(4) The amino acid at this position is optionally phosphorylated; listed as Homo sapiens) [compound 57]”, the Colorectal entry in the data set with colorectal cancer is recorded as “✓”. Also, in the data set on ovarian cancer, the Ovarian entry is “✓”. Besides, the Melanoma entry in the data set on melanoma is recorded as “✓”.
Consider “76 (VMIGSPKKV; (5)...(5) The amino acid at this position is optionally phosphorylated; listed as Homo sapiens) [compound 76]”, for which the Colorectal entry in the data set with colorectal cancer is listed as “✓”. Further, in the data set on ovarian cancer, the Ovarian entry is reported as “✓”. The Melanoma result with melanoma was “✓”.
On to “81 (APRRYSSSL; (6)...(6) The amino acid at this position is optionally phosphorylated; listed as Homo sapiens) [compound 81]”, for which the Colorectal entry with colorectal cancer is on record as “✓”. Besides, the Esophageal entry in the data set on esophageal cancer was “✓”. Moreover, the Leukemia entry in the data set on leukemia is “✓”. Moreover, in the data set with melanoma, the Melanoma result is “✓”.
On to “140 (RPISPPHTY; (4)...(4) The amino acid at this position is optionally phosphorylated; listed as Homo sapiens) [compound 140]”, for which the Esophageal result with esophageal cancer was “✓”.
As for “149 (RPMSESPHM; (4)...(4) The amino acid at this position is optionally phosphorylated; listed as Homo sapiens) [compound 149]”, the Esophageal result in the data set with esophageal cancer is on record as “✓”.
For “159 (RPRGSQSLL; (5)...(5) The amino acid at this position is optionally phosphorylated; listed as Homo sapiens) [compound 159]”, the Colorectal entry in the data set with colorectal cancer is listed as “✓”. In addition, the Esophageal entry in the data set with esophageal cancer was “✓”.
“191 (RPTSFADEL; (4)...(4) The amino acid at this position is optionally phosphorylated; listed as Homo sapiens) [compound 191]”: the Esophageal entry in the data set with esophageal cancer is given as “✓”.
Same read-out and setting: to “196 (RPVSTDFAQY; (4)...(4) The amino acid at this position is optionally phosphorylated; listed as Homo sapiens) [compound 196]” belongs “✓”.
As for “242 (KRYSGNMEY; (4)...(4) The amino acid at this position is optionally phosphorylated; listed as Homo sapiens) [compound 242]”, the Colorectal entry in the data set on colorectal cancer is reported as “✓”. For the same substance, the Esophageal result with esophageal cancer is “✓”. Besides, the Melanoma entry in the data set with melanoma is recorded as “✓”.
In the case of “249 (RRFSGTAVY; (4)...(4) The amino acid at this position is optionally phosphorylated; listed as Homo sapiens) [compound 249]”, the Colorectal result with colorectal cancer is recorded as “✓”. For the same substance, the Esophageal result in the data set on esophageal cancer is given as “✓”. The Leukemia result in the data set with leukemia is recorded as “✓”.
In the case of “252 (RRFSPPRRM; (4)...(4) The amino acid at this position is optionally phosphorylated; listed as Homo sapiens) [compound 252]”, in the data set with colorectal cancer, the Colorectal result is reported as “✓”. Also, the Esophageal entry in the data set with esophageal cancer was “✓”. Further, in the data set with leukemia, the Leukemia result was “✓”.
Regarding “257 (RRGSFEVTL; (4)...(4) The amino acid at this position is optionally phosphorylated; listed as Homo sapiens) [compound 257]”, the Colorectal entry in the data set on colorectal cancer is given as “✓”. The Esophageal entry with esophageal cancer is reported as “✓”.
In the case of “259 (RRISDPEVF; (4)...(4) The amino acid at this position is optionally phosphorylated; listed as Homo sapiens) [compound 259]”, in the data set with colorectal cancer, the Colorectal entry is given as “✓”. Also, the Ovarian entry with ovarian cancer is given as “✓”. The Leukemia result with leukemia is recorded as “✓”.
In the case of “262 (RRKSQVAEL; (4)...(4) The amino acid at this position is optionally phosphorylated; listed as Homo sapiens) [compound 262]”, in the data set with colorectal cancer, the Colorectal result is “✓”. In the data set with esophageal cancer, the Esophageal result is “✓”. Besides, in the data set with leukemia, the Leukemia entry is reported as “✓”. In addition, the Melanoma result in the data set on melanoma is given as “✓”.
As to “268 (RRMSLLSVV; (4)...(4) The amino acid at this position is optionally phosphorylated; listed as Homo sapiens) [compound 268]”, in the data set on colorectal cancer, the Colorectal result is on record as “✓”. Moreover, in the data set with esophageal cancer, the Esophageal entry is “✓”. Also, the Melanoma entry in the data set with melanoma is given as “✓”.
“269 (RRNSAPVSV; (4)...(4) The amino acid at this position is optionally phosphorylated; listed as Homo sapiens) [compound 269]”: in the data set on colorectal cancer, the Colorectal entry was “✓”. The Esophageal entry in the data set on esophageal cancer is “✓”.
As for “271 (RRPSLLSEF; (4)...(4) The amino acid at this position is optionally phosphorylated; listed as Homo sapiens) [compound 271]”, the Colorectal result with colorectal cancer is reported as “✓”. In addition, the Esophageal entry in the data set with esophageal cancer is given as “✓”.
Consider “284 (SPRRSRSISL; (5)...(5) The amino acid at this position is optionally phosphorylated; listed as Homo sapiens) [compound 284]”, for which the Colorectal result in the data set with colorectal cancer was “✓”. Also, the Ovarian result in the data set on ovarian cancer is on record as “✓”. Also, the Leukemia result in the data set with leukemia is listed as “✓”. Further, the Melanoma entry with melanoma was “✓”.
With “289 (ITQGTPLKY; (5)...(5) The amino acid at this position is optionally phosphorylated; listed as Homo sapiens) [compound 289]”, the Colorectal entry with colorectal cancer is reported as “✓”. The Esophageal entry in the data set on esophageal cancer is reported as “✓”. For the same substance, the Melanoma result in the data set on melanoma is “✓”.
As for “294 (TMASPGKDNY; (4)...(4) The amino acid at this position is optionally phosphorylated; listed as Homo sapiens) [compound 294]”, in the data set on colorectal cancer, the Colorectal entry is “✓”. Also, the Esophageal entry in the data set on esophageal cancer is reported as “✓”. In addition, in the data set on melanoma, the Melanoma entry is given as “✓”.
Take “296 (YPLSPTKISQY; (4)...(4) The amino acid at this position is optionally phosphorylated; listed as Homo sapiens) [compound 296]”: in the data set with esophageal cancer, the Esophageal result is “✓”.
Regarding “374 (RKPSIVTKY; (4)...(4) The amino acid at this position is optionally phosphorylated; listed as Homo sapiens) [compound 374]”, the Esophageal entry in the data set on esophageal cancer is reported as “✓”. Also, the Leukemia result in the data set on leukemia was “✓”.
“376 (RRLSFLVSY; (4)...(4) The amino acid at this position is optionally phosphorylated; listed as Homo sapiens) [compound 376]”: in the data set on colorectal cancer, the Colorectal result is given as “✓”. In addition, the Esophageal entry in the data set on esophageal cancer is “✓”. For the same substance, the Melanoma result in the data set with melanoma is “✓”.
In the case of “380 (SRSSSVLSL; (8)...(8) The amino acid at this position is optionally phosphorylated; listed as Homo sapiens) [compound 380]”, the Esophageal entry in the data set on esophageal cancer was “✓”.
With “381 (TRKTPESFL; (4)...(4) The amino acid at this position is optionally phosphorylated; listed as Homo sapiens) [compound 381]”, the Esophageal entry with esophageal cancer was “✓”.
With “385 (RSDSYVEL; (4)...(4) The amino acid at this position is optionally phosphorylated; listed as Homo sapiens) [compound 385]”, the Colorectal result with colorectal cancer is reported as “✓”. Also, the Esophageal result in the data set on esophageal cancer was “✓”. For the same substance, the Leukemia entry in the data set on leukemia is given as “✓”.
